Assay results reported in article doi:10.1101/2020.05.14.097329.
Results are given in words; binding and its absence hold for the method and conditions named. Binding seen in cells or lysates may run through a third protein. Some entries that bind do so weakly or less than the wild type.

Amino acid sequences for entries named in this document (tags omitted). A change or cut given only in a name is not applied to a line headed by its entry. Chains listed by the source or under a name are the forms on record and can include a tag or linker.
zinc finger antiviral protein (ZAP), short (S) isoform (Q7Z2W4-2, form named): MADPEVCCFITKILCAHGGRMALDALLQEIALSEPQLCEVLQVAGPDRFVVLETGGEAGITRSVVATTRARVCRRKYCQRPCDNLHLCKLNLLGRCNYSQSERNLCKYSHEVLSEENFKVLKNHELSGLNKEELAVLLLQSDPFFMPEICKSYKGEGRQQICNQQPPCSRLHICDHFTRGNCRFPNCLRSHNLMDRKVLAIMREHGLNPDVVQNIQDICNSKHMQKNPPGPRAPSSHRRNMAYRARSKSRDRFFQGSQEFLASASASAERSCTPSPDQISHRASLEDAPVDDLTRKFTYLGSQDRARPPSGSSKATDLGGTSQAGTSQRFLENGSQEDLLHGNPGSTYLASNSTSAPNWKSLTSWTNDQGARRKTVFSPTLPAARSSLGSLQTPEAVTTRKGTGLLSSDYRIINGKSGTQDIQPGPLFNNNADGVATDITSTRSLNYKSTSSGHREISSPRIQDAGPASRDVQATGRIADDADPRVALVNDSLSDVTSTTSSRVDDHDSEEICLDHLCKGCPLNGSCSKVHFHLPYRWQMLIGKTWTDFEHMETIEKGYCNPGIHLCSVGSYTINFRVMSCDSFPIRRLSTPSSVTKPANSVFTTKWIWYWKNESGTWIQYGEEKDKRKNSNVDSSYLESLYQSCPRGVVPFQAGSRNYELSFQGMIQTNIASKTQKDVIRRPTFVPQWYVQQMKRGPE

Target: T1, oligoadenylate synthetase 3 (OAS3) (human (endogenous in A549)) (UniProt Q9Y6K5)
T1 sequence: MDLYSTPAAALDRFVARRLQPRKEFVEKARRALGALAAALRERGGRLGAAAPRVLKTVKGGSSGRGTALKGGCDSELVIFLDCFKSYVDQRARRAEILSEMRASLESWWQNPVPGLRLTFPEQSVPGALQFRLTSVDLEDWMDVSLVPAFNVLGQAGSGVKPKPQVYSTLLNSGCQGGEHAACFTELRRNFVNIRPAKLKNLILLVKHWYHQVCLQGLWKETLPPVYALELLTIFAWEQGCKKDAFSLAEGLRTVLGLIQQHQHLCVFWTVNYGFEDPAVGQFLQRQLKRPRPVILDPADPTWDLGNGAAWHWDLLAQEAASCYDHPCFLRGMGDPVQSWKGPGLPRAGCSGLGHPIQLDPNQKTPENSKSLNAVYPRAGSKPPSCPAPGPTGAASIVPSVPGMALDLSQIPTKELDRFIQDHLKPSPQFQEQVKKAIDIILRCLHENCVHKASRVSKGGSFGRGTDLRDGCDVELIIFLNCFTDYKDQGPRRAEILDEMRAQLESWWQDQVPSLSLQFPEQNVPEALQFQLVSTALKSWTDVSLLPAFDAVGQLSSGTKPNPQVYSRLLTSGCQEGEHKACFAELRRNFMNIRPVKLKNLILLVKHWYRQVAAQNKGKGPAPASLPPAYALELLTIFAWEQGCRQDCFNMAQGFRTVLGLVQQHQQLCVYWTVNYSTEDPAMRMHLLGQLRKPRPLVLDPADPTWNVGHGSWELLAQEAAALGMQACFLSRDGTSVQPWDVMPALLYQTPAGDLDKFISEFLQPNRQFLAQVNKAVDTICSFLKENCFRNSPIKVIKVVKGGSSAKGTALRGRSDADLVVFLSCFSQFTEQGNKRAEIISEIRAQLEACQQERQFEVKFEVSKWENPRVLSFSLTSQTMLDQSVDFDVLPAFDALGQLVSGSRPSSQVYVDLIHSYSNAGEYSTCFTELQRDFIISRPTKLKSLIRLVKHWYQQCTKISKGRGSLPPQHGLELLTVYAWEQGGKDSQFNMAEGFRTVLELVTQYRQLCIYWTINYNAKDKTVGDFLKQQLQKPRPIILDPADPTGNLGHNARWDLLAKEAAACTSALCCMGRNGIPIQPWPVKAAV
Assay: co-IP

| Substance | binding |
| --- | --- |
| zinc finger antiviral protein (ZAP), long (L) isoform (from UniProt Q7Z2W4-1 1-902) | binds |
| zinc finger antiviral protein (ZAP), short (S) isoform (from UniProt Q7Z2W4-2 1-699) | binds |
